The list shows a part of the results. Residues, ends and D or L forms follow the SMILES beside them. *: point of attachment. Cbz = O=C(OCc1ccccc1)*
Tests used:
Assay in all cases: log2 fold change, soluble protein after heating vs DMSO (PISA); higher = thermal stabilisation; K562 cells, 10 uM, 30 min; active = over 0.2 and 3.5 SD of the protein, either way, in both replicates (recomputed)
erlotinib = compound: C#Cc1cccc(Nc2ncnc3cc(OCCOC)c(OCCOC)cc23)c1 [erlotinib]
Summary of the method: (§1)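 Aliquots of K562 cells (2×10^6 cells/mL) treated with 10 μM compound for 30 min were heated for 3 min over 48°C-58°C. After pooling and extraction in PBS with 0.5% NP-40 at 4°C, soluble protein from a 21,000xg, 90 min spin was quantified by TMTpro 16plex LC-MS/MS with channel sums equalised. Thermal stability is expressed against control samples, from duplicates, as a log2 fold change.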

Amino acid sequences for entries named in this document (tags omitted). A change or cut given only in a name is not applied to a line headed by its entry.
UniProt Q6UY14: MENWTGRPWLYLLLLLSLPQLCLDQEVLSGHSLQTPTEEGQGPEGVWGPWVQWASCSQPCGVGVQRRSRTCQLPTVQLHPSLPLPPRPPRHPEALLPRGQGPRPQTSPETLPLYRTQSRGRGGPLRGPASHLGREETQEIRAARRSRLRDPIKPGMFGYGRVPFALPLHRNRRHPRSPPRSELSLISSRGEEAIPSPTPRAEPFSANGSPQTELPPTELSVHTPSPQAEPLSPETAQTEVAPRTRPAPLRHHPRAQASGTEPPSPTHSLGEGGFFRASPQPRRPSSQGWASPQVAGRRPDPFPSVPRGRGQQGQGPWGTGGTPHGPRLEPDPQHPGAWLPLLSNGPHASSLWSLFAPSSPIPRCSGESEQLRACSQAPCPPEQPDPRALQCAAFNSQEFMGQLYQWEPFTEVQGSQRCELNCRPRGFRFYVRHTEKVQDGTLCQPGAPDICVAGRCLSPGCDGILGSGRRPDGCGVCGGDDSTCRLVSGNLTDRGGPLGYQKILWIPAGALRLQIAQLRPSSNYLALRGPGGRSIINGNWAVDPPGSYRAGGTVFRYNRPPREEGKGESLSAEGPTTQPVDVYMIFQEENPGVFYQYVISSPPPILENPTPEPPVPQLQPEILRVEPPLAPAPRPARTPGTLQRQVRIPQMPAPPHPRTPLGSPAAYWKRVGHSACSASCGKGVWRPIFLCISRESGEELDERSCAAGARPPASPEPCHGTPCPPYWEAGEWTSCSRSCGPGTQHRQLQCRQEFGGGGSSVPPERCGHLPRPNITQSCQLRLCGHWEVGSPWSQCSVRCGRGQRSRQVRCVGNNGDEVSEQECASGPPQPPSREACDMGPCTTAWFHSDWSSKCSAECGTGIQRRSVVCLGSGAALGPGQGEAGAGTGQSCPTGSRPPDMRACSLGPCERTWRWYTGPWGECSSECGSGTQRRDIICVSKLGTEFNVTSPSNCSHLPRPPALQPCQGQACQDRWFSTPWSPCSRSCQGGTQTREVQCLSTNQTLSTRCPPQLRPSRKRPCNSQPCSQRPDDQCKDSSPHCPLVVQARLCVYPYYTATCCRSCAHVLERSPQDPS
UniProt Q9BWD1: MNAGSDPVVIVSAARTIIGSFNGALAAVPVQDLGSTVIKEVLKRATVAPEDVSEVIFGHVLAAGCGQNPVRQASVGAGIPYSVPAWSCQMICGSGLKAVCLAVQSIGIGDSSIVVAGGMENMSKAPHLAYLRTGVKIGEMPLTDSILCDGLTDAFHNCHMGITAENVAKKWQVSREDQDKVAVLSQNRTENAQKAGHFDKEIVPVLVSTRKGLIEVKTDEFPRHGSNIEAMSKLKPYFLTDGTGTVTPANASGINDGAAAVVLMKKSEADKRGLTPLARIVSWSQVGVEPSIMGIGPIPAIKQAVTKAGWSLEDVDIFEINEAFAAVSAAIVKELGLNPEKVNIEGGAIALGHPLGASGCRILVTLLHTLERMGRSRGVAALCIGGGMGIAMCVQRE
UniProt P07311: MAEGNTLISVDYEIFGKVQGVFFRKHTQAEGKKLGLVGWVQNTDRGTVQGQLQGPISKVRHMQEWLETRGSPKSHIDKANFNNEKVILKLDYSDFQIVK
UniProt O15439: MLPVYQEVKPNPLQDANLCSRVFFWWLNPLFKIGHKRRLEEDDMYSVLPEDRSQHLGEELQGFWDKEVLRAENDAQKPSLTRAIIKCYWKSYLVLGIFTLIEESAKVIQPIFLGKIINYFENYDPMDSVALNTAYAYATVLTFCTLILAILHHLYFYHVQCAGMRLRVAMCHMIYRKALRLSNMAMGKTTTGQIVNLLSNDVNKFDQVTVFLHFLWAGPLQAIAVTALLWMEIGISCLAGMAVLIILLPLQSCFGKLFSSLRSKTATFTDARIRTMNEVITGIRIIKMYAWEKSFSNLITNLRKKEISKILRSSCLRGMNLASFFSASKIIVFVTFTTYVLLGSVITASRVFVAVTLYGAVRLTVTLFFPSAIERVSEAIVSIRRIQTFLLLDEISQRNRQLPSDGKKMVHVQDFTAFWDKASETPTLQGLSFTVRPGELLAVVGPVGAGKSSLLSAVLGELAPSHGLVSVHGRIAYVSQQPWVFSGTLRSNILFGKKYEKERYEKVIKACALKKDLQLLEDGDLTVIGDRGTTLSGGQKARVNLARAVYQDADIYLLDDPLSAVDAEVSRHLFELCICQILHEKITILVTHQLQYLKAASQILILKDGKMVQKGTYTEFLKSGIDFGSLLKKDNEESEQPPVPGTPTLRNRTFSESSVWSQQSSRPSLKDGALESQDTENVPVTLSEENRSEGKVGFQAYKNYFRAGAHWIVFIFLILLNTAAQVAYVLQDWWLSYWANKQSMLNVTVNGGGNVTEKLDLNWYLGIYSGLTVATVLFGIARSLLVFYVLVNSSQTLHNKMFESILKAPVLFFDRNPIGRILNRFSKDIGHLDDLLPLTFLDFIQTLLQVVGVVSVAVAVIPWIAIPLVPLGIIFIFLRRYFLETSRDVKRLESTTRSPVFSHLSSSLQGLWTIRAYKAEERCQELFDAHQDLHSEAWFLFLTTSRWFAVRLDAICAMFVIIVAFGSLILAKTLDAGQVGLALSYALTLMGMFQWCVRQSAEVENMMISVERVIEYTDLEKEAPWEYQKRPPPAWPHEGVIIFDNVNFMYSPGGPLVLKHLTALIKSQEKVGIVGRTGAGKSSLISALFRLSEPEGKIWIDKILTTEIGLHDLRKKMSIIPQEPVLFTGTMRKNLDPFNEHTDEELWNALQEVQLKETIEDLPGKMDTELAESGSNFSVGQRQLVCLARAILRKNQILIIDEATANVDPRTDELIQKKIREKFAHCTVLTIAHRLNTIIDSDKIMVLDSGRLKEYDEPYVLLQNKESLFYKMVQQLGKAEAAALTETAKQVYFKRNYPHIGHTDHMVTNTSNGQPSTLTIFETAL
UniProt Q9H568: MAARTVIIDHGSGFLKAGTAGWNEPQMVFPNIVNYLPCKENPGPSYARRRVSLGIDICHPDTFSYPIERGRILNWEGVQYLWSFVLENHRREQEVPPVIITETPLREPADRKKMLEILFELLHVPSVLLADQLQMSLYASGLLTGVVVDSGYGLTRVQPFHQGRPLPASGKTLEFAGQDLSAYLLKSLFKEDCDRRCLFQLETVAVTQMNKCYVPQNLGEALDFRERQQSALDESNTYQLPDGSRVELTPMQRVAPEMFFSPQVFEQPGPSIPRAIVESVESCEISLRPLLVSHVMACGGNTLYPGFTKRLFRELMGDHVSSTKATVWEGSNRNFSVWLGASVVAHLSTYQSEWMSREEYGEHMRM
UniProt O14639: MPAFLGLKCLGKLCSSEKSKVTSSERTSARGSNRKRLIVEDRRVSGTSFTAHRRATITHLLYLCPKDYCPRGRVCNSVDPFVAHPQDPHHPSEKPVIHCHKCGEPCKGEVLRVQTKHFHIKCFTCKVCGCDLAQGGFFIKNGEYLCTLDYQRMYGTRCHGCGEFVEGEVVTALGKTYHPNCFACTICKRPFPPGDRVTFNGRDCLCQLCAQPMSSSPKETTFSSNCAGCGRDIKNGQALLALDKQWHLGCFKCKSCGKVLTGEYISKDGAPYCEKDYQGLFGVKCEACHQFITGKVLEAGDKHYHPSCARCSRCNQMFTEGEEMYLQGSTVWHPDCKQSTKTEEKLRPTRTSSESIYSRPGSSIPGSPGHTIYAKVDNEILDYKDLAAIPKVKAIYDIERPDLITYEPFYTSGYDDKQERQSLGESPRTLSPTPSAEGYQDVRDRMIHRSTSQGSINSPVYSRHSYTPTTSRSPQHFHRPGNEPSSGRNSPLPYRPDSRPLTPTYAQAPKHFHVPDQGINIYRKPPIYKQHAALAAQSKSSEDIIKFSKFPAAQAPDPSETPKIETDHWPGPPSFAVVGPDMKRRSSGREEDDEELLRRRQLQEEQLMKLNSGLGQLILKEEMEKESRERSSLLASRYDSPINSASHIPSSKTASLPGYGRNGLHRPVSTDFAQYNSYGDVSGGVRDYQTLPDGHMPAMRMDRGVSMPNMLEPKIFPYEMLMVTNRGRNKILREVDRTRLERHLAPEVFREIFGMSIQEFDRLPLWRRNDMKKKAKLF
UniProt P16219: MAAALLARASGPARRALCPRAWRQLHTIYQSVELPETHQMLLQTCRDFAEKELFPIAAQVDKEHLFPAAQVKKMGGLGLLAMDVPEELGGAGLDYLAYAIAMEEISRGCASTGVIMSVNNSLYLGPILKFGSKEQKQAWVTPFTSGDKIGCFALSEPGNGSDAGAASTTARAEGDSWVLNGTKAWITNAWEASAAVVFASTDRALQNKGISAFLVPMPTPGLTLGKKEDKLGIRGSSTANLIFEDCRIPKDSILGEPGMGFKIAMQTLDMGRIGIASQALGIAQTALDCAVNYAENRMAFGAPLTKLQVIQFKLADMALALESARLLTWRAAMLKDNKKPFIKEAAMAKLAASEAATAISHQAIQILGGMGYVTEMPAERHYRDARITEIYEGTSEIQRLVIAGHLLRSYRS
UniProt Q5VST6: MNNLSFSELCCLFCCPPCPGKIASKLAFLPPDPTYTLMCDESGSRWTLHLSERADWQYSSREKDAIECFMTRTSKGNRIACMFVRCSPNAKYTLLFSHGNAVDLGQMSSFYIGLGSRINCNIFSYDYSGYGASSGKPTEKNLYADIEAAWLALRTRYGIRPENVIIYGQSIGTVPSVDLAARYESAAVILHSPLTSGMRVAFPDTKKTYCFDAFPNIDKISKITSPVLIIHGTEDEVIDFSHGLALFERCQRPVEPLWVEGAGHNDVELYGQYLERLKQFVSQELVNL
UniProt Q7L211: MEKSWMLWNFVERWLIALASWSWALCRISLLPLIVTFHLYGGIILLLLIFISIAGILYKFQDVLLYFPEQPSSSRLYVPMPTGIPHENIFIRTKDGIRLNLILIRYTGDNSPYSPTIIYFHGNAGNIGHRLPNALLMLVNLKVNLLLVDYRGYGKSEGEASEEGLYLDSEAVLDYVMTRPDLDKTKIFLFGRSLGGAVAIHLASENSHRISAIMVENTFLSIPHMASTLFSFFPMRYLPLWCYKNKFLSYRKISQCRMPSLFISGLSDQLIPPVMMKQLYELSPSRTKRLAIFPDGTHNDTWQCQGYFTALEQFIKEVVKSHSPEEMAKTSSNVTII
UniProt P53396: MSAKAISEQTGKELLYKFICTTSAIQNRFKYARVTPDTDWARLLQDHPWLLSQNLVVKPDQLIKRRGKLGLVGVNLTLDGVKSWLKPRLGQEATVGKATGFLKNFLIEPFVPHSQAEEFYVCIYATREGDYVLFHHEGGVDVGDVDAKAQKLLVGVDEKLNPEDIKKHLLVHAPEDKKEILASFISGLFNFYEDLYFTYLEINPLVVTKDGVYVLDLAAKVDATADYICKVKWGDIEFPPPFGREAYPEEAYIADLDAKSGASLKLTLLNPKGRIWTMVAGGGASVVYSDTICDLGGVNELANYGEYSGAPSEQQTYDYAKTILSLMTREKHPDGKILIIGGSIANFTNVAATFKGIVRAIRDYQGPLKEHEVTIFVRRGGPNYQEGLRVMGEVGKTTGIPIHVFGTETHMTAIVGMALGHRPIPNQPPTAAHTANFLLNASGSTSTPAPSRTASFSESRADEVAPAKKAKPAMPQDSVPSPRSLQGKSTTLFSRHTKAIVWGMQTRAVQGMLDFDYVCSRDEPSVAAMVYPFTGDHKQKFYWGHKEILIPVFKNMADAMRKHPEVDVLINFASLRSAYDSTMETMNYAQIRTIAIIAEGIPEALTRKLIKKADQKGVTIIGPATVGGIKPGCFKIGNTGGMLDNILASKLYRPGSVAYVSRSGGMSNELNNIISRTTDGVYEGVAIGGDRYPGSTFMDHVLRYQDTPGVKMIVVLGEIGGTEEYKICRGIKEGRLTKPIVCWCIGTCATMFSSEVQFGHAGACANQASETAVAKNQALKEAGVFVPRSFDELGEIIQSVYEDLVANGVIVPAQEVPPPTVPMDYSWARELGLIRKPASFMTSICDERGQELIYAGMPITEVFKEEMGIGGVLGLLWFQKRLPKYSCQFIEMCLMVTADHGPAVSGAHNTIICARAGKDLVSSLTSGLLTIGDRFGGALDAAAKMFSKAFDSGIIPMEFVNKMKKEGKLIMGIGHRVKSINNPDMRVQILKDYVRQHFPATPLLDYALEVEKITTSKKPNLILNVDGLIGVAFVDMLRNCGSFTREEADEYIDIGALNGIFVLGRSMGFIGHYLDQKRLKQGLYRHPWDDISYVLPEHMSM
UniProt Q03154: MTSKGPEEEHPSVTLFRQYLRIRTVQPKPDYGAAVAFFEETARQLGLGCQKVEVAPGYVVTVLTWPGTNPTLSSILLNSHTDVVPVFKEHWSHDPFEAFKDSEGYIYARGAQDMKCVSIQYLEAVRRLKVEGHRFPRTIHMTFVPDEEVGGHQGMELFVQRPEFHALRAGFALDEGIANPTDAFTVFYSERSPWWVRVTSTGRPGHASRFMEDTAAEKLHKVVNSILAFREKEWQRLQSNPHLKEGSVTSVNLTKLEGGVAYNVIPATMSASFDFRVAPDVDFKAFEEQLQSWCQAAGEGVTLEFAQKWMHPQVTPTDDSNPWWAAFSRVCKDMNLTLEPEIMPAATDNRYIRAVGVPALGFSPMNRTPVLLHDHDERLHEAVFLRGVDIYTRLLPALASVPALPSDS

[1] = compound: C/C(=N\NC(=O)C1=CC(=CC=C1)S(=O)(=O)N2CCOCC2)/C3=C(C=CC(=C3)Cl)O
Summary of the method: as §1

[2] = compound: C1=CC(=C(C=C1Cl)C2=NC3=NC=CN=C3C(=N2)NC4=CC=NC=C4)F
Summary of the method: as §1

[3] = compound: C1=CC(=CC=C1C2=NC3=C(N2)C=C(C=C3)C(=O)N)OC4=CC=C(C=C4)Cl
Summary of the method: as §1

[4] = compound: C1=CC2=C(C=CC(=C2)/C=C\3/C(=O)NC(=NCC4=CC=CS4)S3)N=C1
Summary of the method: as §1

[5] = compound: C1=CC2=NC=CN=C2C=C1/C=C/3\C(=O)NC(=O)S3
Summary of the method: as §1

[6] = compound: C1=CC=C(C=C1)C2=NC(=C(N2)C3=CC=NC=C3)C4=CC(=C(C=C4)Cl)O
Summary of the method: as §1

[7] = compound: C1=CC=C2C(=C1)C3=NNC4=CC=CC(=C43)C2=O
Summary of the method: as §1

[8] = compound: C1CCN(C1)C(=O)NC2=CC=CC(=C2)NC3=NC=C(C(=N3)NCCC4=CN=CN4)Br
Summary of the method: as §1

[9] = compound: C1CN(CCC1(CC2=CC=C(C=C2)Cl)N)C3=NC=NC4=C3C=CN4
Summary of the method: as §1

IRAK-1-4 Inhibitor I = compound: C1COCCN1CCN2C3=CC=CC=C3N=C2NC(=O)C4=CC(=CC=C4)[N+](=O)[O-] [IRAK-1-4 Inhibitor I]
Summary of the method: as §1

ibrutinib = compound: C=CC(=O)N1CCC[C@@H](n2nc(-c3ccc(Oc4ccccc4)cc3)c3c(N)ncnc32)C1 [ibrutinib]
Summary of the method: as §1

[10] = compound: CC(=O)c1cnc2ccc(-c3cc(Cl)c(O)c(Cl)c3)nc2c1N[C@H]1CC[C@H](CN(C)C)CC1
Summary of the method: as §1

ralimetinib = compound: CC(C)(C)Cn1c(N)nc2ccc(-c3[nH]c(C(C)(C)C)nc3-c3ccc(F)cc3)nc21 [ralimetinib]
Summary of the method: as §1

[11] = compound: CC(C)(O)CC(=O)NCCn1ccc2ncnc(Nc3ccc(Oc4cccc(C(F)(F)F)c4)c(Cl)c3)c21
Summary of the method: as §1

[12] = compound: CC(C)C1=C2N=C(C=C(N2N=C1)NCC3=CC=CC=C3)NCCCCCCN
Summary of the method: as §1

[13] = compound: CC(C)C[C@@H](C=O)NC(=O)[C@H](CC(C)C)NC(=O)[C@H](CC(C)C)NC(=O)OCc1ccccc1
Summary of the method: as §1

pinometostat = compound: CC(C)N(C[C@H]1O[C@@H](n2cnc3c(N)ncnc32)[C@H](O)[C@@H]1O)[C@H]1C[C@@H](CCc2nc3cc(C(C)(C)C)ccc3[nH]2)C1 [pinometostat]
Summary of the method: as §1

[14] = compound: CC1=C(C(CC(=O)N1)C2=CC=C(C=C2)C(F)(F)F)C(=O)NC3=C(C=C4C(=C3)C=NN4)F
Summary of the method: as §1

[15] = compound: CC1=C(C2=C(C=C1)C(=O)C3=CC=CC=C3N2CCCN)C
Summary of the method: as §1

Measured: log2 fold change

ACTR3 (UniProt P61158)
inactive: erlotinib 0.002 | [1] 0.026 | [2] 0.018 | [3] -0.041 | [4] -0.054 | [5] -0.002 | [6] 0.011 | [7] -0.005 | [8] -0.035 | [9] 0.005 | IRAK-1-4 Inhibitor I 0.038 | ibrutinib 0.008 | [10] 0.014 | ralimetinib -0.014 | [11] -0.004 | [12] 0.101 | [13] 0.011 | pinometostat -0.035 | [14] 0.017 | [15] -0.027

ADAMTSL4 isoform 3 (UniProt Q6UY14)
inactive: erlotinib -0.025 | [1] -0.006 | [2] -0.245 | [3] -0.015 | [4] -0.04 | [5] -0.013 | [6] -0.012 | [7] -0.031 | [8] 0.013 | [9] -0.178 | IRAK-1-4 Inhibitor I -0.024 | ibrutinib 0.074 | [10] 0.032 | ralimetinib 0.095 | [11] 0.049 | [12] 0.093 | [13] 0.028 | pinometostat 0.094 | [14] 0.123 | [15] -0.066

ACTR2 (UniProt P61160)
inactive: erlotinib 0.003 | [1] 0.001 | [2] 0.028 | [3] -0.062 | [4] 0.013 | [5] 0.008 | [6] 0.011 | [7] 0.001 | [8] -0.01 | [9] 0.001 | IRAK-1-4 Inhibitor I 0.051 | ibrutinib -0.003 | [10] 0.012 | ralimetinib -0.022 | [11] 0 | [12] 0.069 | [13] 0.029 | pinometostat -0.022 | [14] -0.034 | [15] 0.03

ACAT2 (UniProt Q9BWD1)
inactive: erlotinib 0.019 | [1] -0.002 | [2] 0.018 | [3] -0.007 | [4] -0.032 | [5] -0.041 | [6] 0.041 | [7] 0.014 | [8] 0.024 | [9] 0.048 | IRAK-1-4 Inhibitor I 0.031 | ibrutinib 0.02 | [10] 0 | ralimetinib 0.062 | [11] 0.035 | [12] 0.101 | [13] 0.068 | pinometostat -0.061 | [14] 0.036 | [15] 0.04

ABCB8 (UniProt Q9NUT2)
inactive: erlotinib 0.028 | [1] 0.035 | [2] -0.023 | [3] 0.017 | [4] 0.055 | [5] 0.071 | [6] -0.058 | [7] -0.003 | [8] -0.004 | [9] 0.036 | IRAK-1-4 Inhibitor I 0.008 | ibrutinib -0.018 | [10] -0.001 | ralimetinib -0.061 | [11] 0.038 | [12] -0.041 | [13] -0.025 | pinometostat 0.026 | [14] -0.024 | [15] 0.018

ACYP1 (UniProt P07311)
inactive: erlotinib 0.021 | [1] 0.067 | [2] 0 | [3] -0.034 | [4] 0.039 | [5] 0.004 | [6] 0.073 | [7] 0.023 | [8] 0.024 | [9] -0.006 | IRAK-1-4 Inhibitor I 0.039 | ibrutinib -0.03 | [10] -0.042 | ralimetinib -0.083 | [11] -0.049 | [12] -0.04 | [13] -0.022 | pinometostat -0.024 | [14] -0.027 | [15] -0.032

ABCC4 (UniProt O15439)
inactive: erlotinib 0.041 | [1] 0.044 | [2] 0.096 | [3] 0.026 | [4] 0.002 | [5] 0.027 | [6] 0.023 | [7] -0.019 | [8] -0.009 | [9] 0.063 | IRAK-1-4 Inhibitor I 0.002 | ibrutinib 0.022 | [10] -0.007 | ralimetinib -0.021 | [11] -0.005 | [12] 0.058 | [13] -0.001 | pinometostat -0.047 | [14] 0.012 | [15] 0.066

ACTL8 (UniProt Q9H568)
inactive: erlotinib -0.036 | [1] -0.008 | [2] 0.139 | [3] 0.019 | [4] 0.045 | [5] 0.06 | [6] -0.017 | [7] -0.029 | [8] 0.003 | [9] 0.13 | IRAK-1-4 Inhibitor I 0.093 | ibrutinib 0.181 | [10] -0.04 | ralimetinib -0.003 | [11] -0.049 | [12] 0.063 | [13] 0.004 | pinometostat -0.016 | [14] 0.022 | [15] 0.058

ABLIM1 (UniProt O14639)
inactive: erlotinib 0.293 | [1] -0.026 | [2] -0.011 | [3] -0.295 | [4] 0.054 | [5] -0.114 | [6] 0.038 | [7] 0.001 | [8] -0.091 | [9] -0.002 | IRAK-1-4 Inhibitor I 0.005 | ibrutinib -0.01 | [10] -0.101 | ralimetinib -0.081 | [11] -0.041 | [12] 0.055 | [13] 0.043 | pinometostat -0.06 | [14] -0.019 | [15] 0.05

Taken from the results shown (two entries):
ACTL8 (UniProt Q9H568)
inactive: erlotinib -0.036 | [1] -0.008 | [2] 0.139 | [3] 0.019 | [4] 0.045 | [5] 0.06 | [6] -0.017 | [7] -0.029 | [8] 0.003 | [9] 0.13 | IRAK-1-4 Inhibitor I 0.093 | ibrutinib 0.181 | [10] -0.04 | ralimetinib -0.003 | [11] -0.049 | [12] 0.063 | [13] 0.004 | pinometostat -0.016 | [14] 0.022 | [15] 0.058

ABLIM1 (UniProt O14639)
inactive: erlotinib 0.293 | [1] -0.026 | [2] -0.011 | [3] -0.295 | [4] 0.054 | [5] -0.114 | [6] 0.038 | [7] 0.001 | [8] -0.091 | [9] -0.002 | IRAK-1-4 Inhibitor I 0.005 | ibrutinib -0.01 | [10] -0.101 | ralimetinib -0.081 | [11] -0.041 | [12] 0.055 | [13] 0.043 | pinometostat -0.06 | [14] -0.019 | [15] 0.05

Next records.

ACADS (UniProt P16219)
inactive: erlotinib -0.003 | [1] 0.016 | [2] 0.038 | [3] -0.016 | [4] 0.036 | [5] 0.014 | [6] 0.059 | [7] -0.003 | [8] 0.003 | [9] 0.073 | IRAK-1-4 Inhibitor I -0.014 | ibrutinib -0.007 | [10] -0.025 | ralimetinib -0.016 | [11] -0.035 | [12] 0.024 | [13] -0.039 | pinometostat -0.015 | [14] -0.052 | [15] 0.069

ABHD17B (UniProt Q5VST6)
inactive: erlotinib 0.016 | [1] -0.029 | [2] -0.021 | [3] -0.018 | [4] 0.034 | [5] -0.048 | [6] 0 | [7] 0.041 | [8] -0.033 | [9] 0 | IRAK-1-4 Inhibitor I 0.082 | ibrutinib 0.036 | [10] -0.032 | ralimetinib -0.002 | [11] -0.004 | [12] 0.155 | [13] 0.107 | pinometostat -0.007 | [14] -0.086 | [15] 0.025

ABHD13 (UniProt Q7L211)
inactive: erlotinib 0.051 | [1] -0.072 | [2] -0.068 | [3] 0.287 | [4] 0.198 | [5] 0.176 | [6] 0.028 | [7] -0.031 | [8] -0.139 | [9] -0.053 | IRAK-1-4 Inhibitor I -0.001 | ibrutinib -0.135 | [10] -0.026 | ralimetinib -0.279 | [11] -0.106 | [12] -0.255 | [13] 0.008 | pinometostat -0.051 | [14] 0.043 | [15] 0

ACOX1 isoform 2 (UniProt Q15067)
inactive: erlotinib 0.004 | [1] 0.003 | [2] 0.069 | [3] -0.005 | [4] 0 | [5] 0.036 | [6] 0.072 | [7] -0.011 | [8] -0.006 | [9] 0.009 | IRAK-1-4 Inhibitor I 0.026 | ibrutinib 0.008 | [10] 0.011 | ralimetinib 0 | [11] -0.003 | [12] -0.011 | [13] -0.049 | pinometostat -0.033 | [14] -0.03 | [15] 0.056

ACLY (UniProt P53396)
inactive: erlotinib -0.006 | [1] 0.024 | [2] 0.083 | [3] -0.02 | [4] 0 | [5] -0.147 | [6] 0.031 | [7] -0.008 | [8] 0.017 | [9] 0.018 | IRAK-1-4 Inhibitor I 0.024 | ibrutinib 0.016 | [10] -0.017 | ralimetinib -0.025 | [11] -0.003 | [12] -0.01 | [13] -0.018 | pinometostat -0.024 | [14] -0.006 | [15] -0.028

ABCF3 (UniProt Q9NUQ8)
inactive: erlotinib 0.126 | [1] 0.033 | [2] -0.124 | [3] 0.007 | [4] 0.037 | [5] -0.026 | [6] -0.093 | [7] 0.128 | [8] 0.016 | [9] 0.063 | IRAK-1-4 Inhibitor I -0.052 | ibrutinib -0.014 | [10] 0.098 | ralimetinib 0.114 | [11] 0.222 | [12] -0.092 | [13] 0.107 | pinometostat 0.108 | [14] -0.087 | [15] 0.017

ACY1 (UniProt Q03154)
inactive: erlotinib 0.001 | [1] 0.024 | [2] 0.029 | [3] -0.005 | [4] -0.041 | [5] 0.02 | [6] -0.039 | [7] 0.001 | [8] -0.017 | [9] 0.078 | IRAK-1-4 Inhibitor I 0.059 | ibrutinib 0.003 | [10] 0.019 | ralimetinib -0.022 | [11] -0.007 | [12] 0.046 | [13] -0.032 | pinometostat -0.023 | [14] 0.006 | [15] 0
